Numbering of substitutions follows the chain as printed. Results are given in words; binding and its absence hold for the method and conditions named. In cells and extracts the contact can be indirect. Some binding calls cover weakened binding; strength is not graded here. For some of these results: Sequences can lack the tags named with a protein. Each block holds one substance with its values, some of them ahead of it.
Key:
Ets1 WT-Flag (human) [1] = biological target: T1, Ets1 WT-Flag (human) (UniProt P14921); assay: co-IP; cells (SW480; for the two fragments also HEK293T) co-transfected with tagged Sp1 and Ets1 constructs, 24 h; anti-Flag magnetic beads; blot with anti-HA, anti-GST, anti-Flag or anti-Ets1
T1 sequence: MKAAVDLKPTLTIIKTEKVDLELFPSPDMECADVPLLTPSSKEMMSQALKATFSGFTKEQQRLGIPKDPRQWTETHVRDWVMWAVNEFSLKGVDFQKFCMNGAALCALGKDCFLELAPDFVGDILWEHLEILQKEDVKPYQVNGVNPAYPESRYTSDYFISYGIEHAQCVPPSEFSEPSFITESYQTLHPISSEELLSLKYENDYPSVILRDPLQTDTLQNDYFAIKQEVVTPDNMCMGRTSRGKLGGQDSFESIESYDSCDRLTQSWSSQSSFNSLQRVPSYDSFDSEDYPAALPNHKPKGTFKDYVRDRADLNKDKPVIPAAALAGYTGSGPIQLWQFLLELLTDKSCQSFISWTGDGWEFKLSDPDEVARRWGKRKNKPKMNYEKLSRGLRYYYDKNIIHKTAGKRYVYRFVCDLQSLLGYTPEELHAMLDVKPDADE

By UniProt entry, the sequences of proteins in these tests, tags left out. Where a name states a change or a piece, a line headed by the entry shows the natural chain unless it says otherwise.
UniProt P08047: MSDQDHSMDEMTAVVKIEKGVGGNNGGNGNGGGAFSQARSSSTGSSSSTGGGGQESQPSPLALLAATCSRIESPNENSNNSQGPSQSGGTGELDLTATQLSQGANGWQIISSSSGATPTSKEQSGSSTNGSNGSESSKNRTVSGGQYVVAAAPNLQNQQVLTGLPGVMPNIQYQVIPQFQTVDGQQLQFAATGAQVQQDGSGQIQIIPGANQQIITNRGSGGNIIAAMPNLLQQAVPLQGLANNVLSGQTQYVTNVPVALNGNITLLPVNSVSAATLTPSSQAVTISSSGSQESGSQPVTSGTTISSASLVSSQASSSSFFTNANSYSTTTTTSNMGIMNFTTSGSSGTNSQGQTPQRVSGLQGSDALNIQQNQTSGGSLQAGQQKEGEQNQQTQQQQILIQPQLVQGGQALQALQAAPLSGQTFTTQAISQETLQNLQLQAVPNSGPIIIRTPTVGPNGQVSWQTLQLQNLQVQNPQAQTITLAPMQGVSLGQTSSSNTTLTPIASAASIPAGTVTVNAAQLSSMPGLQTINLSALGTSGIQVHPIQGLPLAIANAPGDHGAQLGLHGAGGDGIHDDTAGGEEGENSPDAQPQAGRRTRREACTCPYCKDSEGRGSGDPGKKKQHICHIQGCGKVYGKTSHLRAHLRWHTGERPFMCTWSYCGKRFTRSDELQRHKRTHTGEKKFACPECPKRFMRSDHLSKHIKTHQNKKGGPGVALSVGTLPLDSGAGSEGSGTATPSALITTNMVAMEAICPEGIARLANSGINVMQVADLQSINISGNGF

[2] = biological target: T2, Ets1(244-331)-Flag (human) (UniProt P14921); assay: as above
T2 sequence: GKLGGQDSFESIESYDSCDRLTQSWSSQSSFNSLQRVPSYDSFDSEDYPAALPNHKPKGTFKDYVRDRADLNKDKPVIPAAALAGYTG

Ets1-Vc155 (human) = biological target: T3, Ets1-Vc155 (human) (UniProt P14921); assay: split reporter; BiFC; Vc155 and Vn173 fusions co-transfected into SW480 cells, 24 h, fluorescence microscopy
T3 sequence: T1 sequence

Ets1-Y283E-Vc155 (human) = biological target: T4, Ets1-Y283E-Vc155 (human) (UniProt P14921); assay: as above
T4 sequence: T1 sequence with Y283E

Ets1-Y283F-Vc155 (human) = biological target: T5, Ets1-Y283F-Vc155 (human) (UniProt P14921); assay: as above
T5 sequence: T1 sequence with Y283F

[3] = biological target: T6, Ets1 Tyr283E-Flag (human) (UniProt P14921); assay: co-IP; anti-Flag immunoprecipitates of cells producing Flag-tagged Ets1 variants, blotted for Sp1; with or without 1 uM PP2 for 2.5 h before harvest
T6 sequence: T1 sequence with Y283E

[4] = biological target: T7, Ets1 Tyr283F-Flag (human) (UniProt P14921); assay: as above
T7 sequence: T1 sequence with Y283F

Ets1 WT-Flag (human) [5] = biological target: T1, Ets1 WT-Flag (human); assay: as above
[6] = biological target: T8, human E26 transcription factor 1 (Ets1), endogenous (human (endogenous in SW480, WM793, HEK293T)) (UniProt P14921); assay: co-IP; SW480 cells cotransfected with Sp1(626-708) and Ets1(244-331) expression vectors; immunoprecipitated with anti-Flag and anti-Ets1 antibodies; blot with anti-Flag, Ets1, Sp1 and P-Tyr antibodies
T8 sequence: T1 sequence

[7] = biological target: T8, human E26 transcription factor 1 (Ets1), endogenous (human (endogenous in SW480, WM793, HEK293T)); assay: co-IP; endogenous proteins; lysates of SW480, WM793 and HEK293T cells immunoprecipitated with anti-Ets1 antibody or control IgG, blotted with anti-Ets1 or anti-Sp1; SW480 lysates also with DNase I (1 unit/uL), or cells treated with dasatinib or PP2 (1, 5 or 10 uM) for 2.5 h

binding (Ets1 WT-Flag (human) [1]): binds
Substance: Sp1 (partner of the Flag-tagged Ets1 variants in Figure 3C) (from UniProt P08047 1-785)

binding [2]: binds
Substance: Sp1(626-708)-HA (from UniProt P08047 626-708) (domain or fragment)

binding (Ets1-Vc155 (human)): binds | binding (Ets1-Y283E-Vc155 (human)): binds | binding (Ets1-Y283F-Vc155 (human)): binds
Substance: Sp1-Vn173 (from UniProt P08047 1-785)

binding [3]: binds | binding [4]: binds | binding (Ets1 WT-Flag (human) [5]): binds | binding [6]: binds | binding [7]: binds
Substance: specific protein 1 (Sp1), endogenous (from UniProt P08047 1-785)

From publication PMC9828152
